Laboratory results taken from the supplement of paper PMC8326762, “A Small Molecule Inhibitor of Pex3–Pex19 Interaction Disrupts Glycosome Biogenesis and Causes Lethality in Trypanosoma brucei” (Frontiers in Cell and Developmental Biology, 2021).
Structures can show the parent of a compound that is named as a salt. This is one part of the list. This is a noisy data set.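 Yeast growth was read as optical density at 600 nm. The two-hybrid strains grew without histidine, so growth needed the Pex3–Pex19 binding; a compound counted as trypanosome-selective if it cut growth of the trypanosome-pair strain by more than 65% and the human-pair strain by less than 65%.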

Legend:
[1] = tested on: Saccharomyces cerevisiae HF7c pdr5Δ; assay: general growth inhibition of yeast HF7c pdr5Δ in -Leu -Trp medium, relative to DMSO; higher = stronger general growth inhibition; details: 100 µM; 24 h
[2] = tested on: human PEX3-PEX19 interaction (yeast two-hybrid); assay: growth inhibition of yeast two-hybrid strain reporting HsPex3-HsPex19 interaction, relative to DMSO; higher = stronger inhibition of human Pex3-Pex19 interaction / growth; details: 100 µM; 24 h; 3-aminotriazole 10 mM
[3] = tested on: T. brucei Pex3-Pex19 interaction (yeast two-hybrid); assay: growth inhibition of yeast two-hybrid strain reporting TbPex3-TbPex19 interaction, relative to DMSO; higher = stronger inhibition of T. brucei Pex3-Pex19 interaction / growth; details: 100 µM; 24 h

Compound: FC(F)(F)c1ccccc1-n1ccnc1 [1-[2-(Trifluoromethyl)phenyl]imidazole]
- general growth inhibition [1]: 14.1%
- growth inhibition [2]: 12.3%
- growth inhibition [3]: 37.3%

Compound: CCCCN(CCCC)CC(O)c1cc(Cl)cc2c1-c1ccc(Cl)cc1/C2=C/c1ccc(Cl)cc1 (stereo unspecified) [Lumefantrine]
- general growth inhibition [1]: 25.5%
- growth inhibition [2]: 15.2%
- growth inhibition [3]: 30.8%

Compound: Cc1ccc(/C(=C\CN2CCCC2)c2ccccn2)cc1 [Triprolidine hydrochloride]
- general growth inhibition [1]: 49%
- growth inhibition [2]: 38.4%
- growth inhibition [3]: 60.8%

Compound: CN1CCN(C2Cc3ccccc3Sc3ccc(Cl)cc32)CC1 (racemic) [(±)-Octoclothepin maleate]
- general growth inhibition [1]: 20.6%
- growth inhibition [2]: 11.7%
- growth inhibition [3]: 48.6%

Compound: Clc1ccc2c(c1)C(N1CCNCC1)=Nc1ccccc1O2 [Amoxapine]
- general growth inhibition [1]: 41.7%
- growth inhibition [2]: 39.7%
- growth inhibition [3]: 62.8%

Compound: CCN(CC)CCOC(=O)C1(C2CCCCC2)CCCCC1 [Dicyclomine hydrochloride]
- general growth inhibition [1]: 36.5%
- growth inhibition [2]: 26.8%
- growth inhibition [3]: 51.1%

Compound: N#CC(C#N)=C(N)/C(C#N)=C/c1ccc(O)cc1 [Tyrphostin AG 112]
- general growth inhibition [1]: 58.7%
- growth inhibition [2]: 49.6%
- growth inhibition [3]: 68.5%

Compound: c1cnc(N2CCN(Cc3ccc4c(c3)OCO4)CC2)nc1 [Piribedil maleate]
- general growth inhibition [1]: 15.8%
- growth inhibition [2]: 16.8%
- growth inhibition [3]: 42.6%

Compound: CC(=O)S[C@@H]1CC2=CC(=O)CC[C@]2(C)[C@H]2CC[C@@]3(C)[C@@H](CC[C@@]34CCC(=O)O4)[C@H]12 [Spironolactone]
- general growth inhibition [1]: 50.2%
- growth inhibition [2]: 41.5%
- growth inhibition [3]: 66.5%

Compound: O=C(N[C@@H](Cc1ccccc1)C(=O)CCl)OCc1ccccc1 [Z-L-Phe chloromethyl ketone]
- general growth inhibition [1]: 71.8%
- growth inhibition [2]: 61.7%
- growth inhibition [3]: 60.1%

Compound: CN(C)C(=O)[C@H](O)[C@H](Cc1ccccc1)NC(=O)c1cc2cc(Cl)ccc2[nH]1
- general growth inhibition [1]: 20.3%
- growth inhibition [2]: 30.9%
- growth inhibition [3]: 42.7%

Compound: Cn1cc(C2=C(c3ccc(Cl)cc3Cl)C(=O)NC2=O)c2ccccc21
- general growth inhibition [1]: 35%
- growth inhibition [2]: 24.2%
- growth inhibition [3]: 43.6%

Compound: NNCCc1ccccc1 [Phenelzine sulfate]
- general growth inhibition [1]: 50.5%
- growth inhibition [2]: 44%
- growth inhibition [3]: 55%

Compound: O=[N+]([O-])c1cccc2cn[nH]c12 [7-Nitroindazole]
- general growth inhibition [1]: 48.8%
- growth inhibition [2]: 46.9%
- growth inhibition [3]: 71.7%

Compound: c1ccc2c(c1)CCC[C@H]2Nc1nc2ccccc2[nH]1 [NS8593 hydrochloride]
- general growth inhibition [1]: 37.3%
- growth inhibition [2]: 50.8%
- growth inhibition [3]: 60.2%

Compound: CC(/C=C/c1cccc(Oc2ccc(F)cc2)c1)N(O)C(N)=O (stereo unspecified)
- general growth inhibition [1]: 32.5%
- growth inhibition [2]: 33.4%
- growth inhibition [3]: 59.3%

Compound: Nc1ccn([C@@H]2O[C@H](CO)[C@@H](O)[C@@H]2O)c(=O)n1 [Cytosine-1-beta-D-arabinofuranoside hydrochloride]
- general growth inhibition [1]: 6.59%
- growth inhibition [2]: -0.874%
- growth inhibition [3]: 25.1%

Compound: CC(C)(C)c1ccc(/C=C/C(=O)Nc2ccc3c(c2)OCCO3)cc1
- general growth inhibition [1]: 30.2%
- growth inhibition [2]: 21.8%
- growth inhibition [3]: 44.5%

Compound: C[C@H](O)C(=O)C1=Nc2c(nc(N)[nH]c2=O)NC1 [Sepiapterin]
- general growth inhibition [1]: 44.1%
- growth inhibition [2]: 52%
- growth inhibition [3]: 58.8%

Compound: CN(C)CCOC(c1ccccc1)c1ccccc1 [Diphenhydramine hydrochloride]
- general growth inhibition [1]: 31.8%
- growth inhibition [2]: 49.6%
- growth inhibition [3]: 62.1%

Compound: CNC[C@H](O)c1ccc(O)c(O)c1 (racemic) [(±)-Epinephrine hydrochloride]
- general growth inhibition [1]: 39.7%
- growth inhibition [2]: 47.2%
- growth inhibition [3]: 51.6%

Compound: CC(=Cc1ccc(C(=O)O)cc1)c1ccc2c(c1)C(C)(C)CCC2(C)C
- general growth inhibition [1]: 45%
- growth inhibition [2]: 39.7%
- growth inhibition [3]: 52.6%
